According to publication PMC5603512, “Discovery, Semisynthesis, Antiparasitic and Cytotoxic Evaluation of 14-Membered Resorcylic Acid Lactones and Their Derivatives” (Scientific Reports, 2017):

Test system: Trypanosoma cruzi
Assay: Antitrypanosomal assay (beta-galactosidase reporter, intracellular amastigotes in Vero cells)
Assay type: cell-based
Conditions: Selectivity Index (CC50/IC50), CC50 on Vero cells
Method: Briefly, the expression of the reporter gene for beta-galactosidase (β-Gal) in the Tulahuen clone C4 of T. cruzi is assessed by colorimetry at 570 nm, which correlates with the parasite growth. Assays were performed on the intracellular amastigote form of the parasite infecting African green monkey kidney (Vero) cells, incubated for 120 h at 37 °C with 5% CO2.

## COc1cc(O)c2c(c1)/C=C/C[C@H](OC(C)=O)[C@H](OC(C)=O)[C@@H](OC(C)=O)/C=C/C[C@H](C)OC2=O [Compound 12]
  Trypanosoma cruzi SI: 88

## COc1cc2c(c(OC(C)=O)c1)C(=O)O[C@@H](C)C/C=C/[C@@H]1OC(C)(C)O[C@H]1[C@@H](OC(C)=O)C/C=C/2 [Compound 11]
  Trypanosoma cruzi SI: 28

## COc1cc2c(c(OC(=O)c3cccs3)c1)C(=O)O[C@@H](C)C/C=C/C(=O)[C@@H](OC(=O)c1cccs1)[C@@H](OC(=O)c1cccs1)C/C=C/2 [Compound 22]
  Trypanosoma cruzi SI: 2
